# Reference: article PMC11349648
# Amino acid sequences for entries named in this document (tags omitted). A change or cut given only in a name is not applied to a line headed by its entry.
# UniProt P12149: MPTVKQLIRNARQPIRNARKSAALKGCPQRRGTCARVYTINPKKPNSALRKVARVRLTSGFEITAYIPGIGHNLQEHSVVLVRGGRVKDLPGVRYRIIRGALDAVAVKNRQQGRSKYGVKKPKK
# UniProt P28752: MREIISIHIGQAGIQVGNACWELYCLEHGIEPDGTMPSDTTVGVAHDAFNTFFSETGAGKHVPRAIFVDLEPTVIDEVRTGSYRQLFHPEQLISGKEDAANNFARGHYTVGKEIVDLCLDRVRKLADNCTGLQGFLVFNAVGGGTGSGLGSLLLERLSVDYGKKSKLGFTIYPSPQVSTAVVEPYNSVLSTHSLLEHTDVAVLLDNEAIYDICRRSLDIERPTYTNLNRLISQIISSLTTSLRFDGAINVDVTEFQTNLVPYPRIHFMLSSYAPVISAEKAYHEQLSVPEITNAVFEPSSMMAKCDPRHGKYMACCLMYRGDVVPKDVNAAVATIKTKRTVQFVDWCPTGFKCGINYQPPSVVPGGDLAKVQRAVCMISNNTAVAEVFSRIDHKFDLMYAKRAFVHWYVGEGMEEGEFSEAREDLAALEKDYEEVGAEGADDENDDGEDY
# These are yes or no findings as the source states them, for the method shown. Binding seen in cells or lysates may run through a third protein. A yes stands for co-enrichment or nearness to the bait. Other partners may have been found.
# T1: Ribosome-inactivating protein OsRIP1 (Oryza sativa) (UniProt Q9LGK6)
# T1 sequence: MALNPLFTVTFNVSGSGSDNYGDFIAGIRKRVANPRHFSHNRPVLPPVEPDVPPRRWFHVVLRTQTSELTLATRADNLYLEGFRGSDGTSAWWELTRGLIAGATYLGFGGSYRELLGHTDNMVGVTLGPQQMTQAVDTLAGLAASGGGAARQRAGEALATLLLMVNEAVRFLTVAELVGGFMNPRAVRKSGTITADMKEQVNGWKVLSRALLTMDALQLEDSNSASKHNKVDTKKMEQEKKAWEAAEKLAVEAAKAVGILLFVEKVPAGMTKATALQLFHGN
# Biological target: T1, Ribosome-inactivating protein OsRIP1 (Oryza sativa)
# Test: affinity purification with mass spectrometry; approximately 54 μg purified OsRIP1 (bait) added to 100 μg total protein extract from shoots of MeJA-treated WT rice (prey), 30 min at 4°C; captured on Ni-NTA agarose beads; one wash with binding buffer with 50 mM imidazole, three with trypsin digest buffer; on-bead trypsin digest, LC-MS/MS, MaxLFQ; control: beads with plant extract only; three replicates; FDR = 0.05 and |log2FC| = 1; only the target purified
row,Molecule,binding
1,30S ribosomal protein S12 (from UniProt P12149),binds
2,"Tubulin alpha-1 chain, α-tubulin (from UniProt P28752 1-450)",binds
3,Glycine-rich RNA-binding protein GRP1A (from UniProt Q2QLR2),binds
4,Q2QVJ6 (NADP-dependent oxidoreductase) (from UniProt Q2QVJ6),binds
5,Q8W0D1 (RNA-binding protein) (from UniProt Q8W0D1),binds
6,40S ribosomal protein S5 (Os11g0482000) (from UniProt Q2R4A1 1-199),binds
7,"50S ribosomal protein L27 (protein, UniProt O65037 61-195) AHKKGAGSTKNGRDSPGQRLGVKIYGDQVAKPGAIIIRQRGTRVYPGNNVGMGKDHTLFSLIDGLVKFEKYGPDKKKVSVYPYEKQPENPNSYRARKREYFRMQRERKKARAEGIVEVQLVLAAADESPEVNADC",binds
8,"Plastid-lipid associated protein/fibrillin domain, fibrillin-like protein 2 (protein, UniProt Q6K439 55-319) AVAGDAEDEWGKEPAADQGGAAAAVAEAPADVPVTSEVAELKAKLKEALYGTERGLRASSETRAEVVELITQLEARNPTPAPTEALTLLNGKWILAYTSFSQLFPLLGSGSLPQLVKVEEISQTIDSENFTVQNCIKFSGPLATTSVSTNAKFEVRSPKRVQIKFDEGIIGTPQLTDSIVLPEKFELFGQNIDLTPLKGIFSSIENAASSVARTISGQPPLKIPIRTDNAESWLLTTYLDDELRISRGDGSSIFVLFKEGSTLLY",binds
